Experimental data: publication PMC5348344
These are yes or no findings as the source states them, for the method shown. Binding seen in cells or lysates may run through a third protein. Some binding calls cover weakened binding; strength is not graded here. Sequences can lack the tags named with a protein. Blank lines part the entries; values can stand above or below the molecule they belong to.

Chains of the proteins cited; added tags and fusions are not shown.
UniProt Q04206: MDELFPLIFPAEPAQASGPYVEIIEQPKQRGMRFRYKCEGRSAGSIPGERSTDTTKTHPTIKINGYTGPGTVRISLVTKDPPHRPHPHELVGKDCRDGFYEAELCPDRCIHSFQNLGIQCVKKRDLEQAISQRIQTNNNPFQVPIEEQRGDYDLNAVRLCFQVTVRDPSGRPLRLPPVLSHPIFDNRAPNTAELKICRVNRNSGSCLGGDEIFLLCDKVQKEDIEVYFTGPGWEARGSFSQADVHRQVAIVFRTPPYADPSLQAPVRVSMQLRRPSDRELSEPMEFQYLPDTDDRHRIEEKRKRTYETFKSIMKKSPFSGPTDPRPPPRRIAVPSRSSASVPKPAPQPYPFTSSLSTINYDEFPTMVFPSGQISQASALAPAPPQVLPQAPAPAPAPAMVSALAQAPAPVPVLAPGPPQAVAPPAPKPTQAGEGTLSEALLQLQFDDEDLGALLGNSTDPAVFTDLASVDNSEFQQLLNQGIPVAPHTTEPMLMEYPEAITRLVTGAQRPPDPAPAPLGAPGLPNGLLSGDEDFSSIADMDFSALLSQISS

Target: T1, O-linked N-acetylglucosamine (O-GlcNAc) transferase (human (endogenous in OCI-LY10 and MS)) (UniProt O15294)
T1 sequence: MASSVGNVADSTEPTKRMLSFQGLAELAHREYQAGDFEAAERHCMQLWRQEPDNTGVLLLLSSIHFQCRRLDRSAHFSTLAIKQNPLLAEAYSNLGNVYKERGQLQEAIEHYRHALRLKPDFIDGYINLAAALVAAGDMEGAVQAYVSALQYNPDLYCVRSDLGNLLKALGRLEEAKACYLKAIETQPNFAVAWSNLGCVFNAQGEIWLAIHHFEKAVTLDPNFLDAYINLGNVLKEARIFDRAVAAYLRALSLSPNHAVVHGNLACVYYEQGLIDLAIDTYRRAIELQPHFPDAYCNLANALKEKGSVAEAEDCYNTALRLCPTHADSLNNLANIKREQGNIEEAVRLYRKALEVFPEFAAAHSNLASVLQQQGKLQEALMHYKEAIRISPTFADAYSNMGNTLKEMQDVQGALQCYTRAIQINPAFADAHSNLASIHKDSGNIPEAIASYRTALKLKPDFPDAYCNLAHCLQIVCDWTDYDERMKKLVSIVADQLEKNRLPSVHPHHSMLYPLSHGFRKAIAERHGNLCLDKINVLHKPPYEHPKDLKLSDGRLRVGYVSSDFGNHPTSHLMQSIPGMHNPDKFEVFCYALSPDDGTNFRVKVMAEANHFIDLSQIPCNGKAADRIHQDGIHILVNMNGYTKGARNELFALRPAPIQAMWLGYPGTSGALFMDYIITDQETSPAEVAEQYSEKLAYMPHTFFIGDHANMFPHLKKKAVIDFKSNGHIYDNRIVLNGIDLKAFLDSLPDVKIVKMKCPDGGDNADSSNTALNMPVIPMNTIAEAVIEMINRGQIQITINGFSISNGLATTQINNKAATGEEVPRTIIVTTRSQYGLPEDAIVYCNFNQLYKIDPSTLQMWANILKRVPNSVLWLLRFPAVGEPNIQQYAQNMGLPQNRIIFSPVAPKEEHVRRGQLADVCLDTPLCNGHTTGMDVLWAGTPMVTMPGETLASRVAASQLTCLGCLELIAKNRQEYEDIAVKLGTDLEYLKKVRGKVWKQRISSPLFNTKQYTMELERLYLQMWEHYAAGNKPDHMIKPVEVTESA
Experiment: co-IP; anti-OGT antibody crosslinked to Dynabeads Protein A; lysates of OCI-LY10 and MS cells pre-cleared with IgG Dynabeads, incubated overnight at 4°C; washed five times with Tris-HCl pH 7.8 10 mM, EDTA 1 mM, NaCl 150 mM, NaF 1 mM, 0.5% Nonidet P-40, 0.5% glucopyranoside; Western blot

binding: binds
Molecule: nuclear factor kappa B (NF-κB)-p65 (from UniProt Q04206 1-551)

binding: binds
B1: nuclear factor of activated T-cells 1 (protein, UniProt O95644 1-943)
chain: MPSTSFPVPSKFPLGPAAAVFGRGETLGPAPRAGGTMKSAEEEHYGYASSNVSPALPLPTAHSTLPAPCHNLQTSTPGIIPPADHPSGYGAALDGGPAGYFLSSGHTRPDGAPALESPRIEITSCLGLYHNNNQFFHDVEVEDVLPSSKRSPSTATLSLPSLEAYRDPSCLSPASSLSSRSCNSEASSYESNYSYPYASPQTSPWQSPCVSPKTTDPEEGFPRGLGACTLLGSPRHSPSTSPRASVTEESWLGARSSRPASPCNKRKYSLNGRQPPYSPHHSPTPSPHGSPRVSVTDDSWLGNTTQYTSSAIVAAINALTTDSSLDLGDGVPVKSRKTTLEQPPSVALKVEPVGEDLGSPPPPADFAPEDYSSFQHIRKGGFCDQYLAVPQHPYQWAKPKPLSPTSYMSPTLPALDWQLPSHSGPYELRIEVQPKSHHRAHYETEGSRGAVKASAGGHPIVQLHGYLENEPLMLQLFIGTADDRLLRPHAFYQVHRITGKTVSTTSHEAILSNTKVLEIPLLPENSMRAVIDCAGILKLRNSDIELRKGETDIGRKNTRVRLVFRVHVPQPSGRTLSLQVASNPIECSQRSAQELPLVEKQSTDSYPVVGGKKMVLSGHNFLQDSKVIFVEKAPDGHHVWEMEAKTDRDLCKPNSLVVEIPPFRNQRITSPVHVSFYVCNGKRKRSQYQRFTYLPANVPIIKTEPTDDYEPAPTCGPVSQGLSPLPRPYYSQQLAMPPDPSSCLVAGFPPCPQRSTLMPAAPGVSPKLHDLSPAAYTKGVASPGHCHLGLPQPAGEAPAVQDVPRPVATHPGSPGQPPPALLPQQVSAPPSSSCPPGLEHSLCPSSPSPPLPPATQEPTCLQPCSPACPPATGRPQHLPSTVRRDESPTAGPRLLPEVHEDGSPNLAPIPVTVKREPEELDQLYLDDVNEIIRNDLSSTSTHS
